{"source": "PubChem BioAssay AID1259308 – NCATS, 2017", "aim": "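Candidate targets for better recombinant protein yield in mammalian cells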 (primary screen)", "system": "human HEK293 embryonic kidney cells stably expressing firefly luciferase (HEK-CMV-Luc2-Hygro)", "knock-down reagent": "single siRNA against human genes, 0.8 pmol siRNA per well", "timing": "72 h", "read-out": "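Luciferase light (ONE-Glo) measured on one replicate plate set and viability (CellTiter-Glo) on the other, scaled to a negative control siRNA, with robust z-scores and luciferase per cell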", "reading the numbers": "total luciferase, z-score: higher = more reporter protein produced", "hit rule": "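An siRNA counts as active if its total luciferase robust z-score exceeds 3; genes with two or more such siRNAs out of three were retested with fresh siRNAs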", "calls": "active = raised luciferase; inactive = no rise", "note": "The deposit covers about 59,000 reagents; this is a random part of them. About 1,510 of them (2.6%) were called active. 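Calls use total luciferase alone and ignore viability, so some active siRNAs may act by altering cell number.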 A number with no mark means an inactive call. Reagents against one gene are numbered here. Further read-outs or replicates are left out here."}
{"target gene": "SPACA7", "reagent": 1, "total luciferase, z-score": -0.671}
{"target gene": "SPACA7", "reagent": 2, "total luciferase, z-score": 2.13}
{"target gene": "SPACA7", "reagent": 3, "total luciferase, z-score": 1.25}
{"target gene": "KCNQ2", "reagent": 1, "total luciferase, z-score": -0.276}
{"target gene": "KCNQ2", "reagent": 2, "total luciferase, z-score": 0.459}
{"target gene": "KCNQ2", "reagent": 3, "total luciferase, z-score": 0.694}
{"target gene": "TRAPPC6B", "reagent": 1, "total luciferase, z-score": 1.77}
{"target gene": "TRAPPC6B", "reagent": 2, "total luciferase, z-score": -0.154}
{"target gene": "TRAPPC6B", "reagent": 3, "total luciferase, z-score": 1.32}
{"target gene": "TAF8", "reagent": 1, "total luciferase, z-score": 0.516}
{"target gene": "TAF8", "reagent": 2, "total luciferase, z-score": 0.896}
{"target gene": "TAF8", "reagent": 3, "total luciferase, z-score": 0.973}

Continued (3 carried over from the part before).
{"target gene": "TAF8", "reagent": 1, "total luciferase, z-score": 0.516}
{"target gene": "TAF8", "reagent": 2, "total luciferase, z-score": 0.896}
{"target gene": "TAF8", "reagent": 3, "total luciferase, z-score": 0.973}
{"target gene": "ASAH1", "reagent": 1, "total luciferase, z-score": 0.846}
{"target gene": "ASAH1", "reagent": 2, "total luciferase, z-score": -0.448}
{"target gene": "ASAH1", "reagent": 3, "total luciferase, z-score": -0.0842}
{"target gene": "CCN4", "reagent": 1, "total luciferase, z-score": 0.295}
{"target gene": "CCN4", "reagent": 2, "total luciferase, z-score": 0.297}
{"target gene": "CCN4", "reagent": 3, "total luciferase, z-score": -0.734}
{"target gene": "SEPTIN7", "reagent": 1, "total luciferase, z-score": -0.748}
{"target gene": "SEPTIN7", "reagent": 2, "total luciferase, z-score": -0.119}
{"target gene": "SEPTIN7", "reagent": 3, "total luciferase, z-score": -1.06}
